The structures given here were assigned with low confidence; some may be wrong.

Sequences of proteins named here, by UniProt entry; tags and fusion partners are left off.
UniProt P35462, whole entry: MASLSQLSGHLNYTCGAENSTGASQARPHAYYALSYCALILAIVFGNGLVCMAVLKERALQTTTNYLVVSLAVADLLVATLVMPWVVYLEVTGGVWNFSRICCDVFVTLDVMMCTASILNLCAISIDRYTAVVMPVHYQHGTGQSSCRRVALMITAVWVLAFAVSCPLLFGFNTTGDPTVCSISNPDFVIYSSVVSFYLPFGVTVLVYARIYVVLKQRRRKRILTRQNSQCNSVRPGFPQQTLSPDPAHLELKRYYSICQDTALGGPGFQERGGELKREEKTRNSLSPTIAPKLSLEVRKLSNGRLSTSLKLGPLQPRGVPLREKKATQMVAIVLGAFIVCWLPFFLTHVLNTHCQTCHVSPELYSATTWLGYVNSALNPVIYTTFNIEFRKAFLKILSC

The record followed here is publication PMC9820167, “Design and Synthesis of Conformationally Flexible Scaffold as Bitopic Ligands for Potent D3-Selective Antagonists” (International Journal of Molecular Sciences, 2022).

This assay concerns the target human D3 receptors (Homo sapiens, UniProt P35462). The assay can be described thus: β-arrestin recruitment assay (antagonist mode, competition with dopamine). The conditions noted are these: potency for D3 receptors, CHO-K1 cells, vs 30 nM (EC80) dopamine; mean ± SD, three experiments.

As to `CCN(C)CCNC(=O)c1cc(Br)cc(OC)c1OC` [compound 12, 5-Bromo-N-(2-(ethyl(methyl)amino)ethyl)-2,3-dimethoxybenzamide], the IC50 is 4.6 nM.

Broadly, the IC50 is the concentration that gives 50% inhibition. Low readings indicate inhibition by little substance, high ones a need for much substance.
